Test results from paper PMC9408947.
No constants are given. Whether binding was seen depends on the method and setting. Binding seen in cells or lysates may run through a third protein. Here binding means that the protein was enriched with, or labelled near, the bait; the list need not be complete. Tags and fused reporters may be left off the sequences shown.

Sequences of proteins named here, by UniProt entry; tags and fusion partners are left off. Residues count along the entry.
UniProt Q49AH0, residues 25-187: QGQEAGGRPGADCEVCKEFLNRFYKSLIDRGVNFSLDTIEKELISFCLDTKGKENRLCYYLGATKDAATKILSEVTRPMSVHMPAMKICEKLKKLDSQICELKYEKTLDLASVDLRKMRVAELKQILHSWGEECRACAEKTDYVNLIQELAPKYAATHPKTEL
UniProt P11021, residues 19-654: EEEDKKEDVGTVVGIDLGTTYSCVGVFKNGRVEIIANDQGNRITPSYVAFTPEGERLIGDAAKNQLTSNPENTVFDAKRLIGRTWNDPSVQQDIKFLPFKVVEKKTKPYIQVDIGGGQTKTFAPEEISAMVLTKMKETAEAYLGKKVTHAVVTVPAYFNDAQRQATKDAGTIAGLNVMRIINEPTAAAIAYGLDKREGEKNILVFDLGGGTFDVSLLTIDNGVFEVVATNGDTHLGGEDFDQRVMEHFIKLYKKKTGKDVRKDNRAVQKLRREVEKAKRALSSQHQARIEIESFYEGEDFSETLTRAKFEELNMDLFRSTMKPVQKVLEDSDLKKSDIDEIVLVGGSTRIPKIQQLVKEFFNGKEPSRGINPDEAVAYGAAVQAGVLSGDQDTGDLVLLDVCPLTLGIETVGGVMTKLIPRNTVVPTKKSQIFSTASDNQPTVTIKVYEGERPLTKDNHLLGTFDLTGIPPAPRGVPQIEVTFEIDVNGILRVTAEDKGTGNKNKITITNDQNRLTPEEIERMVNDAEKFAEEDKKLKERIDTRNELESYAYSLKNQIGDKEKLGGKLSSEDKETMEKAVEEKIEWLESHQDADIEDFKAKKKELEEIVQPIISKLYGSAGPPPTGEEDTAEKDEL

Tests used:
[1] = target: SH-tagged CDNF (cerebral dopamine neurotrophic factor with Twin-StrepII and HA tags) (human) (UniProt Q49AH0); test: affinity purification with mass spectrometry; SH-CDNF as bait from lysate of doxycycline-induced HEK293 SH-CDNF cells (HENN buffer, 0.5% NP40, 150 mM NaCl, pH 8.0), held on Strep-Tactin beads, eluted with 1 mM D-biotin; SH-GFP cell line as control; FDR <= 0.001, S0 = 2
[2] = target: SH-tagged CDNF (cerebral dopamine neurotrophic factor with Twin-StrepII and HA tags) (human) (UniProt Q49AH0); test: affinity purification with mass spectrometry; SH-CDNF as bait from lysate of doxycycline-induced INS1 SH-CDNF cells (HENN buffer, 0.5% NP40, 150 mM NaCl, pH 8.0), held on Strep-Tactin beads, eluted with 1 mM D-biotin; SH-GFP cell line as control; FDR <= 0.001, S0 = 2

GRP78 (endogenous, HEK293) (from UniProt P11021 19-654)
binding [1]: binds

B1: glucose-regulated protein 170 kDa (endogenous, HEK293) (protein, UniProt Q9Y4L1 33-999)
chain: LAVMSVDLGSESMKVAIVKPGVPMEIVLNKESRRKTPVIVTLKENERFFGDSAASMAIKNPKATLRYFQHLLGKQADNPHVALYQARFPEHELTFDPQRQTVHFQISSQLQFSPEEVLGMVLNYSRSLAEDFAEQPIKDAVITVPVFFNQAERRAVLQAARMAGLKVLQLINDNTATALSYGVFRRKDINTTAQNIMFYDMGSGSTVCTIVTYQMVKTKEAGMQPQLQIRGVGFDRTLGGLEMELRLRERLAGLFNEQRKGQRAKDVRENPRAMAKLLREANRLKTVLSANADHMAQIEGLMDDVDFKAKVTRVEFEELCADLFERVPGPVQQALQSAEMSLDEIEQVILVGGATRVPRVQEVLLKAVGKEELGKNINADEAAAMGAVYQAAALSKAFKVKPFVVRDAVVYPILVEFTREVEEEPGIHSLKHNKRVLFSRMGPYPQRKVITFNRYSHDFNFHINYGDLGFLGPEDLRVFGSQNLTTVKLKGVGDSFKKYPDYESKGIKAHFNLDESGVLSLDRVESVFETLVEDSAEEESTLTKLGNTISSLFGGGTTPDAKENGTDTVQEEEESPAEGSKDEPGEQVELKEEAEAPVEDGSQPPPPEPKGDATPEGEKATEKENGDKSEAQKPSEKAEAGPEGVAPAPEGEKKQKPARKRRMVEEIGVELVVLDLPDLPEDKLAQSVQKLQDLTLRDLEKQEREKAANSLEAFIFETQDKLYQPEYQEVSTEEQREEISGKLSAASTWLEDEGVGATTVMLKEKLAELRKLCQGLFFRVEERKKWPERLSALDNLLNHSSMFLKGARLIPEMDQIFTEVEMTTLEKVINETWAWKNATLAEQAKLPATEKPVLLSKDIEAKMMALDREVQYLLNKAKFTKPRPRPKDKNGTRAEPPLNASASDQGEKVIPPAGQTEDAEPISEPEKVETGSEPGDTEPLELGGPGAEPEQKEQSTGQKRPLKNDEL
binding [1]: binds

B2: glucose-regulated protein 170 kDa (endogenous, INS1) (protein, UniProt Q63617 33-999)
chain: LAVMSVDLGSESMKVAIVKPGVPMEIVLNKESRRKTPVTVTLKENERFLGDSAAGMAIKNPKATLRYFQHLLGKQADNPHVALYRSRFPEHELNVDPQRQTVRFQISPQLQFSPEEVLGMVLNYSRSLAEDFAEQPIKDAVITVPAFFNQAERRAVLQAARMAGLKVLQLINDNTATALSYGVFRRKDINSTAQNIMFYDMGSGSTVCTIVTYQTVKTKEAGTQPQLQIRGVGFDRTLGGLEMELRLREHLAKLFNEQRKGQKAKDVRENPRAMAKLLREANRLKTVLSANADHMAQIEGLMDDVDFKAKVTRVEFEELCADLFDRVPGPVQQALQSAEMSLDQIEQVILVGGPTRVPKVQEVLLKPVGKEELGKNINADEAAAMGAVYQAAALSKAFKVKPFVVRDAVIYPILVEFTREVEEEPGLRSLKHNKRVLFSRMGPYPQRKVITFNRYSHDFNFHINYGDLGFLGPEDLRVFGSQNLTTVKLKGVGESFKKYPDYESKGIKAHFNLDESGVLSLDRVESVFETLVEDSPEEESTLTKLGNTISSLFGGGTSSDAKENGTDAVQEEEESPAEGSKDEPAEQGELKEEAEAPMEDTSQPPPSEPKGDAAREGETPDEKESGDKSEAQKPNEKGQAGPEGVPPAPEEEKKQKPARKQKMVEEIGVELAVLDLPDLPEDELAHSVQKLEDLTLRDLEKQEREKAANSLEAFIFETQDKLYQPEYQEVSTEEQREEISGKLSATSTWLEDEGFGATTVMLKDKLAELRKLCQGLFFRVEERRKWPERLSALDNLLNHSSIFLKGARLIPEMDQIFTDVEMTTLEKVINDTWTWKNATLAEQAKLPATEKPVLLSKDIEAKMMALDREVQYLLNKAKFTKPRPRPKDKNGTRTEPPLNASAGDQEEKVIPPTGQTEEAKAILEPDKEGLGTEAADSEPLELGGPGAESEQAEQTAGQKRPLKNDEL
binding [2]: binds
